The supplement of paper PMC8728848
The other results are listed elsewhere or left out.

Tests used:
Experiment in all cases: glycan array binding signal (z-score within array); higher = stronger binding
Details in all cases: glycan notation: IUPAC condensed, linker removed
[1] = molecular target: Fuc(a1-2)Gal
Summary of the method: (§1)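 Glycan array data came from 3228 arrays in the Consortium for Functional Glycomics database, and only arrays with an available protein sequence were kept. Glycan names were put into IUPAC-condensed notation, and columns mapping to the same glycan were averaged. The binding signal is a within-array Z-score, averaged across arrays of one protein sequence run at different concentrations or buffers and across linkers. A negative Z-score can be read as non-binding.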

[2] = molecular target: Fuc(a1-2)Gal(b1-3)GalNAc
Summary of the method: as §1

[3] = molecular target: Fuc(a1-2)Gal(b1-3)GalNAc(a1-3)[Fuc(a1-2)]Gal(b1-4)Glc
Summary of the method: as §1

[4] = molecular target: Fuc(a1-2)Gal(b1-3)GalNAc(a1-3)[Fuc(a1-2)]Gal(b1-4)GlcNAc
Summary of the method: as §1

[5] = molecular target: Fuc(a1-2)Gal(b1-3)GalNAc(b1-3)Gal
Summary of the method: as §1

[6] = molecular target: Fuc(a1-2)Gal(b1-3)GalNAc(b1-3)Gal(a1-4)Gal(b1-4)Glc
Summary of the method: as §1

[7] = molecular target: Fuc(a1-2)Gal(b1-3)GalNAc(b1-4)[Neu5Ac(a2-3)]Gal(b1-4)Glc
Summary of the method: as §1

[8] = molecular target: Fuc(a1-2)Gal(b1-3)GlcNAc
Summary of the method: as §1

[9] = molecular target: Fuc(a1-2)Gal(b1-3)GlcNAc(b1-2)Man(a1-3)[Fuc(a1-2)Gal(b1-3)GlcNAc(b1-2)Man(a1-6)]Man(b1-4)GlcNAc(b1-4)GlcNAc
Summary of the method: as §1

[10] = molecular target: Fuc(a1-2)Gal(b1-3)GlcNAc(b1-2)Man(a1-3)[Fuc(a1-2)Gal(b1-3)GlcNAc(b1-2)Man(a1-6)]Man(b1-4)GlcNAc(b1-4)[Fuc(a1-6)]GlcNAc
Summary of the method: as §1

[11] = molecular target: Fuc(a1-2)Gal(b1-3)GlcNAc(b1-3)Gal(b1-4)Glc
Summary of the method: as §1

[12] = molecular target: Fuc(a1-2)Gal(b1-3)GlcNAc(b1-3)GalNAc
Summary of the method: as §1

[13] = molecular target: Fuc(a1-2)Gal(b1-3)GlcNAc(b1-3)[Fuc(a1-2)Gal(b1-3)GlcNAc(b1-6)]GalNAc
Summary of the method: as §1

[14] = molecular target: Fuc(a1-2)Gal(b1-3)GlcNAc(b1-3)[Gal(b1-4)GlcNAc(b1-6)]Gal(b1-4)Glc
Summary of the method: as §1

[15] = molecular target: Fuc(a1-2)Gal(b1-3)GlcNAc(b1-3)[Neu5Ac(a2-6)Gal(b1-4)GlcNAc(b1-6)]Gal(b1-4)Glc
Summary of the method: as §1

[16] = molecular target: Fuc(a1-2)Gal(b1-3)GlcNAc6S
Summary of the method: as §1

[17] = molecular target: Fuc(a1-2)Gal(b1-3)[Fuc(a1-4)]GlcNAc
Summary of the method: as §1

[18] = molecular target: Fuc(a1-2)Gal(b1-3)[Fuc(a1-4)]GlcNAc(b1-2)Man(a1-3)[Fuc(a1-2)Gal(b1-3)[Fuc(a1-4)]GlcNAc(b1-2)Man(a1-3)]Man(b1-4)GlcNAc(b1-4)GlcNAc
Summary of the method: as §1

[19] = molecular target: Fuc(a1-2)Gal(b1-3)[Fuc(a1-4)]GlcNAc(b1-2)Man(a1-3)[Fuc(a1-2)Gal(b1-3)[Fuc(a1-4)]GlcNAc(b1-2)Man(a1-6)]Man(b1-4)GlcNAc(b1-4)[Fuc(a1-6)]GlcNAc(b1-4)[Fuc(a1-6)]GlcNAc
Summary of the method: as §1

[20] = molecular target: Fuc(a1-2)Gal(b1-3)[Fuc(a1-4)]GlcNAc(b1-3)[Fuc(a1-3)[Gal(b1-4)]GlcNAc(b1-6)]Gal(b1-4)Glc
Summary of the method: as §1

[21] = molecular target: Fuc(a1-2)Gal(b1-3)[Fuc(a1-4)]GlcNAc(b1-3)[Gal(b1-4)GlcNAc(b1-6)]Gal(b1-4)Glc
Summary of the method: as §1

[22] = molecular target: Fuc(a1-2)Gal(b1-4)Glc
Summary of the method: as §1

[23] = molecular target: Fuc(a1-2)Gal(b1-4)Glc6S
Summary of the method: as §1

[24] = molecular target: Fuc(a1-2)Gal(b1-4)GlcNAc
Summary of the method: as §1

[25] = molecular target: Fuc(a1-2)Gal(b1-4)GlcNAc(b1-2)Man
Summary of the method: as §1

[26] = molecular target: Fuc(a1-2)Gal(b1-4)GlcNAc(b1-2)Man(a1-3)[Fuc(a1-2)Gal(b1-4)GlcNAc(b1-2)Man(a1-6)]Man(b1-4)GlcNAc(b1-4)GlcNAc
Summary of the method: as §1

[27] = molecular target: Fuc(a1-2)Gal(b1-4)GlcNAc(b1-2)Man(a1-3)[Fuc(a1-2)Gal(b1-4)GlcNAc(b1-2)Man(a1-6)]Man(b1-4)GlcNAc(b1-4)[Fuc(a1-6)]GlcNAc
Summary of the method: as §1

[28] = molecular target: Fuc(a1-2)Gal(b1-4)GlcNAc(b1-2)[Fuc(a1-2)Gal(b1-4)GlcNAc(b1-4)]Man(a1-3)[Fuc(a1-2)Gal(b1-4)GlcNAc(b1-2)Man(a1-6)]Man(b1-4)GlcNAc(b1-4)GlcNAc
Summary of the method: as §1

[29] = molecular target: Fuc(a1-2)Gal(b1-4)GlcNAc(b1-3)Gal(b1-4)GlcNAc
Summary of the method: as §1

[30] = molecular target: Fuc(a1-2)Gal(b1-4)GlcNAc(b1-3)Gal(b1-4)GlcNAc(b1-2)Man(a1-3)[Fuc(a1-2)Gal(b1-4)GlcNAc(b1-3)Gal(b1-4)GlcNAc(b1-2)Man(a1-6)]Man(b1-4)GlcNAc(b1-4)GlcNAc
Summary of the method: as §1

B1: GS7807Q-bfa-507-19-507 (Bacteroides fragilis) (protein)
chain: ASCNKFDDLNTNPDAATKVTAPMLATKLILNITQQGSAKNFVYHSMLSKQIAWSENASDEQYNLFGRTDFDGYTILTNCQKMVDAANEGDKDSYAALAKFMKAYKLFYKSLEVGDIPYSDALKGEEGVQKPKYDTQKEVMRQVLEDLEEAYTLFSSGSDFDGDPIFGGDTENWKKTVVAFELKVLTHLCKKDTDADLKVKERFARLVSSGSLMTSNADNFQLVYSNKAGQLYPFYYTQNKHSDYLMMSSVIIDNLKKFNDYRMFYYASPAKAQTDKGIKDSEWDAYLSIDPSDSYSNISVLYGKGEFCLANLRYTRVPEGEPLMRLSYAEQNFILAEGAVRGWISEDASTYYKKGIEASMNFIADNTPDKEEYTHGRTITQEYIQEYLAQPVIQLSGDKEKDLEMILLQRYLASFLQHPYDAYYDYRRTGYPVLPINPSTNLNTEKNKIPTRWMYPEAEFSYNPDNANEAVQRQYNGSDDVNKLMWILQ
glycan array binding signal (z-score) [1]: -0.64
glycan array binding signal (z-score) [2]: -1.06
glycan array binding signal (z-score) [3]: -0.063
glycan array binding signal (z-score) [4]: -1.04
glycan array binding signal (z-score) [5]: 1.59
glycan array binding signal (z-score) [6]: -0.458
glycan array binding signal (z-score) [7]: 0.204
glycan array binding signal (z-score) [8]: -0.429
glycan array binding signal (z-score) [9]: 0.576
glycan array binding signal (z-score) [10]: -0.2
glycan array binding signal (z-score) [11]: 0.58
glycan array binding signal (z-score) [12]: 0.392
glycan array binding signal (z-score) [13]: -0.116
glycan array binding signal (z-score) [14]: -0.015
glycan array binding signal (z-score) [15]: -0.457
glycan array binding signal (z-score) [16]: -1.1
glycan array binding signal (z-score) [17]: -0.925
glycan array binding signal (z-score) [18]: -0.678
glycan array binding signal (z-score) [19]: 0.639
glycan array binding signal (z-score) [20]: 0.481
glycan array binding signal (z-score) [21]: -0.199
glycan array binding signal (z-score) [22]: -0.389
glycan array binding signal (z-score) [23]: -1.16
glycan array binding signal (z-score) [24]: -0.646
glycan array binding signal (z-score) [25]: 0.759
glycan array binding signal (z-score) [26]: 6.11
glycan array binding signal (z-score) [27]: 1.59
glycan array binding signal (z-score) [28]: 1.14
glycan array binding signal (z-score) [29]: -0.681
glycan array binding signal (z-score) [30]: -0.466
